## Library screen at single concentrations

By UniProt entry, the sequences of proteins in these tests, tags left out. Residues count along the entry.
UniProt P9WNZ1, whole entry: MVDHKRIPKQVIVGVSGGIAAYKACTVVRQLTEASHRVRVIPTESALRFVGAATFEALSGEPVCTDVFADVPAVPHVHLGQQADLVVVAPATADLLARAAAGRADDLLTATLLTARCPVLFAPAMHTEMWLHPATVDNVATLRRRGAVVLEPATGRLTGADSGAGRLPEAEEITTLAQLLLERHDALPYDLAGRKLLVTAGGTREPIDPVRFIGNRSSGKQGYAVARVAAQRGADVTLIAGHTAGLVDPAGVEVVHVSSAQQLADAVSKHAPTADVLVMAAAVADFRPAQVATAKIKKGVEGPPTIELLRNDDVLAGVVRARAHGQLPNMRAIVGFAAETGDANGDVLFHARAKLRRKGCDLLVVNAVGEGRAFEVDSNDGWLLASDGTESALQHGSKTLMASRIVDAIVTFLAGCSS
UniProt P9WFT3, whole entry: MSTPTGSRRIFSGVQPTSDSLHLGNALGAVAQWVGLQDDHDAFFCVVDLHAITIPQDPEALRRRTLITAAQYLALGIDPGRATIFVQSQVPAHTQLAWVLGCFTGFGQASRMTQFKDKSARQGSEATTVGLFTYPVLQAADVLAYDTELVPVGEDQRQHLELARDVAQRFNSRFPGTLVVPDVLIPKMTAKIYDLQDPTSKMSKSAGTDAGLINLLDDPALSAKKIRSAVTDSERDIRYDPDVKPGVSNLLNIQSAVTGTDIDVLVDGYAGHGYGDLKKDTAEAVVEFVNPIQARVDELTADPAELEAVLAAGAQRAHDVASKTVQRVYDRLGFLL
UniProt A4I591, 1-473: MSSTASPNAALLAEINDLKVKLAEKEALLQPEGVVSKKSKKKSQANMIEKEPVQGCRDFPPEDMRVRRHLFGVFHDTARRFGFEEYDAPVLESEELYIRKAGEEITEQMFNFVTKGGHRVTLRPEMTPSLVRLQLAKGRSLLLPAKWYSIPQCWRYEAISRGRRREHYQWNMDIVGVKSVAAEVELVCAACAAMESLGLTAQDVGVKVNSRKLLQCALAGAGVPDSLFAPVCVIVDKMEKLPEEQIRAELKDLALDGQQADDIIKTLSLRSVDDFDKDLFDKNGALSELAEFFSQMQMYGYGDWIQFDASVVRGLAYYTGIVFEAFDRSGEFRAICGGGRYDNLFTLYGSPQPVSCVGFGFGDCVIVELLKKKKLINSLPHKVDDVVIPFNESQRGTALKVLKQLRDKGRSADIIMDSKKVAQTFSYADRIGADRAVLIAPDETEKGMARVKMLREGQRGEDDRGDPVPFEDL

Data taken from ChEMBL document CHEMBL3988442, “University of Dundee, Small-Polar-MMV Screening Library” (2021).

A: 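Enzyme assay of CoaBC with a phosphate dye (Biomol Green) read at 650 nm. Target: Coenzyme A biosynthesis protein CoaBC, Mycobacterium tuberculosis (UniProt P9WNZ1). Concentration: 30 µM. Direction is inferred from only a few compounds that gave an IC50; most scored high, so higher reads as stronger inhibition. Most strong results did not repeat in a second test. Size under these conditions: about 67,000 compounds, about 40 of them at 50% or above in at least one test.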
B: 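Assay of Toxoplasma gondii numbers, read through their beta-galactosidase reporter with a colour substrate. Compounds at 10 µM. Higher reads as fewer parasites (inferred from which compounds were picked for retests). About 67,000 compounds were tested under these conditions; 0.38% (about 260) showed 50% or more at least once.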
C: 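Cell assay of Leishmania donovani living inside macrophages; the read-out is not stated. Tested at 30 µM. Higher reads as stronger inhibition (inferred: compounds with an IC50 in retests scored well above the rest). About 69,000 compounds were tested under these conditions; 1.5% (about 1,000) showed 50% or more at least once.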
D: 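Tryptophan-tRNA ligase, Mycobacterium tuberculosis (UniProt P9WFT3). Enzyme assay of tryptophanyl-tRNA synthetase; the read-out is not stated. Compounds at 10 µM. Higher most likely means stronger inhibition; the record gives no direction and few retests gave an IC50. Size under these conditions: about 65,000 compounds, about 64 of them at 50% or above in at least one test.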
E: 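Histidine-tRNA ligase, Leishmania infantum (UniProt A4I591). Enzyme assay of histidyl-tRNA synthetase; the read-out is not stated. Tested at 30 µM. Direction is inferred from retests: higher values go with stronger inhibition. The assay is labelled LdHisRS but filed under L. infantum. Of about 69,000 compounds tested this way, about 410 (0.6%) reached 50% or more in at least one test.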

Results are given as percent effect.
How 0% and 100% were set is not recorded. Most values in the screen are low, and negative values occur.
The compounds are a random part of those screened.
Two or more numbers in one place are separate tests of the same structure; such repeats can differ widely.
A dash means the value is not listed here; it may have been measured.

SMILES	A	B	C	D	E
FC(F)(F)CCc1ccnc(N2CCN(Cc3ccncc3)CC2)n1	-6.048	1.625	-4.469	-6.133	18.42
CNC(=O)NC(=O)C(C)N1CCCc2cc(OC)ccc2C1 (stereo not given)	-	-0.7991	28.61	-2.683	5.833
O=C(O)c1cc(-c2ccn(CC3CC3)n2)n2ccccc12	8.402	-3.885	20	-4.941	22
O=C(O)C(F)(F)F.O=C1COC2(COCCN(c3ccccn3)C2)CN1c1cccc(F)c1 (stereo not given)	-	3.274	41.02	-	-
Cc1nnc2n1CCN(Cc1csc(-c3cnn(C)c3)n1)C2	5.72	8.116	9.113	-1.939	12.12
CSCc1noc(CN2CCC3(CC2)CC(=O)N(CC(C)C)C3)n1	-2.801	2.731	4.03	2.434	22.58
O=C(c1cncc(N2CCCC3(CCNCC3)CC2)n1)N1CCCCC1	-27.19	-3.954	-3.428	2.462	31.67
CC(C)CN1CC[C@@H]2[C@@H]1CCN2C(=O)N1CCCC1	5.285	-	-	1.48	21.05
CC(C)Cn1ncc(C(=O)NS(=O)(=O)c2ccccc2)c1C1CC1	1.384	-1.388	-2.92	1.769	5.31
O=C(NCCN1CCOCC1)c1cnc(Cc2ccc(F)cc2)s1	6.612	9.07	16.17	1.81	20.54
OC1CCN(Cc2ccc(CNc3ccc(Cl)cn3)cc2)CC1	-21.2	3.898	16.22	-2.57	19.48
CN(C)c1ncnc2c1CCN(S(=O)(=O)c1ccccc1C(F)(F)F)C2	3.297	11.73	21.81	7.686	2.857
Cc1cc(C)nc(Nc2cccc(C3CCCN(CCO)C3)n2)n1 (stereo not given)	-0.2421	1.759	8.732 and 10.96	-	16.49
Cl.N#CC1(C(=O)NCC2CCC3(CCNCC3)O2)CC1 (stereo not given)	-	-24.19	-4.35	-	-
CCn1ncc(CNc2[nH]cnc3nncc2-3)c1C	-2.685	8.233	46.44	2.692	10.34
Cn1ncc2c(N3CCCC(C)(O)C3)nc(-c3cccnc3)nc21 (stereo not given)	7.006	5.808	-4.563	-4.104	7.965
CC(=O)N1[C@H](Cn2cncn2)C[C@@H]2CN(C(=O)NC3CC3)CC[C@@H]21	-1.29	-	-	-4.926	8.333
Cc1nocc1C(=O)N1CCCC2(CCN(c3ccsc3)C2=O)C1 (stereo not given)	5.447	-4	33.68	-5.531	22.81
Cc1cc(C(=O)NCCN2CCCCC2)nn1C(C)(C)C	5.646	-3.204	24.85	2.601	6.024
COC(=O)COc1nc(C(C)C)no1	4.964	4.582	9.138	4.044	14.13
CCn1nc(C)cc1C(=O)OCCNC(=O)c1ccccc1	-1.984	-4.723	8.339	-4.617	0
Cc1nc(CC(=O)NS(=O)(=O)c2cccc3cnccc23)cs1	3.201	-1.053	13.9	2.699	19.75
O=C1CC(c2ccc3c(c2)OCO3)c2cnn(C3CCCC3)c2N1 (stereo not given)	5.725	21.66	-19.98	-4.009	-2.439
Cc1nnc2n1CCN(C(=O)c1cc(C)n(-c3ccccn3)c1C)C2	8.514	4.08	18.35	-0.2924	10.61
O=C(NCCc1cc(N2CCOCC2)nc(N2CCCC2)n1)C1CC1	0.4843	-1.11	22.24	-4.243	9.79
N#Cc1cccnc1NCc1ccc(S(=O)(=O)NC2CC2)cc1	-	-1.712	12.42	2.683	15.83
CC1CCN(S(=O)(=O)NCc2ccccc2Cn2cncn2)CC1	-0.2611	0.6187	21.97	1.462	18.92
CN(CCCc1cc(-c2ccc(F)cc2)n(C)n1)CC(N)=O	-0.9639	6.167	47.44	3.689	20.88
Cc1cc(CSCc2csc(CS(C)(=O)=O)n2)no1	5.124	-1.499	32.29	-0.000007	18.37
OC[C@H]1CN(Cc2c(Cl)cccc2Cl)C[C@H]1CN1CCCCC1	-14.49	-5.27	-10.44	7.901	-3.947
CN1CCOCC12CCN(c1nncs1)CC2.O=C(O)C(F)(F)F.O=C(O)C(F)(F)F	-	5.963	30.87	-	-
O=C(O)c1ccccc1CN1CCC2(Cc3ccccc3CNC2=O)C1 (stereo not given)	0.2632	4.52	8.328	2.334	19.31
CS(=O)(=O)N1CCCC12CCCN(c1nccs1)C2 (stereo not given)	-0.6342	8.252	12.42 and -32.02	-7.822	29.82
COCCc1noc(CNC(=O)C2CC(=O)N(C(C)(C)C)C2)n1 (stereo not given)	0.5115	2.925	23.38	-1.26	18.03
O=C(O)CSc1nnc(-c2ccn[nH]2)n1-c1ccccc1C(F)(F)F	-1.79	11.15	22.18	0	19.67
c1cc(CN2CCc3nc(N4CCOCC4)nc(NC4CC4)c3C2)co1	-5.684	-5.982	6.365 and -7.784	-1.992	18.58
CC(=O)C(Cc1ccccc1)NC(=O)CSc1nncn1C (stereo not given)	-2.857	-1.642	9.037	-0.07764	11.43
CCN1CCNC(=O)C12CCN(S(=O)(=O)c1ccc(OC)cc1)CC2	-0.2545	-23.02	3.835	-4.77	17.48
CN(C)C(=O)c1cnc(-c2ccc3c(c2)OCO3)s1	6.315	7.47	-40.62	3.441	17.7
CCNC(=O)[C@@H]1C[C@H](NC(=O)Cc2ccsc2)CN1Cc1ccc(C)o1	6.14	-1.777	30.05	3.926	22.86
CC(=O)c1ccccc1-c1nc(CC2CCN(C)CC2)no1	1.09	8.491	87.64	2.955	20.65
Cc1noc(C)c1C(=O)N1CCC2(CC(N(C)c3ccncn3)C2)C1 (stereo not given)	2.427	16.58	3.747 and 16.04	-	10.14
CC(C)OCCCNC(=O)CS(=O)(=O)Cc1ccc(C(C)C)cc1	0.4779	10.99	17.36	2.321	21.15
COc1cccc(N2CCN(C(=O)C(O)CC(C)C)CC2=O)c1 (stereo not given)	12.42	0	-10.7	-2.143	-9.434
Cc1nonc1CN1CC[C@@](O)(C2CCC2)[C@H](C)C1	1.104	0.3921	17.05	-4.359	5.882
COC[C@H]1CN(CC2CC2)C(=O)[C@@H]2CCN(Cc3ccoc3)CC[C@H]12	-	-	-	2.05	12.07
Cc1n[nH]cc1CNCC1(c2ccc3c(c2)OCO3)CCOCC1	-8.696	-	-	-3.565	16.23
CN(C)CCN1CCCC12CCN(C(=O)c1cnccn1)CC2	1.209	6.653	15.27	2.672	7.317
Cc1ccc(-c2nn3c(nc2=O)-c2ccccc2NC3C(=O)O)cc1C (stereo not given)	9.153	26.76	-4.572	6.061	38.03
COC(=O)c1ccc(N2CCN(CCC(=O)NC(N)=O)C(C)C2)cc1 (stereo not given)	3.172	3.076	-13.19	0.2924	13.64
Cn1cccc1C(=O)N1CCC2(CCCN2Cc2ccccc2)CC1.O=C(O)C(F)(F)F	-	5.529	18	-	-
CCOCCC(=O)Nc1cccc(Cl)c1COC	-6.561	0.4824	4.904	4.558	6.667
NC(=O)CSCCC(=O)NCC1CC1	7.744	-1.724	15.56	0.9032	13.83
[H][C@]12CC[C@]([H])(CN(C(=O)CSc3nc(CC)n[nH]3)C1)N(CC=C(C)C)C2	-	-17.48	12.7	-	-
CNc1cc(C)nc(N2CCC3(CC2)[C@H](O)C[C@@H]3OCCO)n1	5.295	-7.109	-2.638	-3.072	-2.941
[H][C@@]12CCN(C3CCC3)[C@]1([H])CC[C@H](C(=O)NCCc1ccncc1)O2	-	1.972	21.26	-	-
CN(C)C(=O)Cc1ccc(NC(=O)c2cn(C)nn2)cc1	-7.563	-0.7042	9.007	-6.69	7.692
O=C(O)C(F)(F)F.[H][C@@]12CC(COCc3cccnc3)C[C@@]1([H])N(C(=O)N(C)C)CCO2 (stereo not given in full)	-	13.91	12.2	-	-
N#Cc1ccc(OC2CCN(C(=O)COCC3CCCO3)CC2)cc1 (stereo not given)	3.512	-12.05	-21.95	-3.381	8.219
COc1ccc(C)cc1CN(C)Cc1nc2c(cnn2C)c(=O)[nH]1	10.85	9.102	10.8	-0.2924	28.79
CC(Cc1cn(CCc2nc(N)cc(O)n2)nn1)c1ccccc1 (stereo not given)	9.877	-27.01	-8.848	-7.987	16.78

Once more, the final 5:

| SMILES | A | B | C | D | E |
|---|---|---|---|---|---|
| `CN(C)C(=O)Cc1ccc(NC(=O)c2cn(C)nn2)cc1` | -7.563 | -0.7042 | 9.007 | -6.69 | 7.692 |
| `O=C(O)C(F)(F)F.[H][C@@]12CC(COCc3cccnc3)C[C@@]1([H])N(C(=O)N(C)C)CCO2` (stereo not given in full) | - | 13.91 | 12.2 | - | - |
| `N#Cc1ccc(OC2CCN(C(=O)COCC3CCCO3)CC2)cc1` (stereo not given) | 3.512 | -12.05 | -21.95 | -3.381 | 8.219 |
| `COc1ccc(C)cc1CN(C)Cc1nc2c(cnn2C)c(=O)[nH]1` | 10.85 | 9.102 | 10.8 | -0.2924 | 28.79 |
| `CC(Cc1cn(CCc2nc(N)cc(O)n2)nn1)c1ccccc1` (stereo not given) | 9.877 | -27.01 | -8.848 | -7.987 | 16.78 |